# “And” between values parts separate entries of the source, which are not always exact repeats. Equal values may be shown once. Among all 410,000 compounds or so, about 18,000 (4.4%) were called active. The inconclusive results got no clear call from the source; some entries with a clear call stand among them for comparison. No stated cut-off is given here; in the data, active means activity change below about -60%; inconclusive means no clear call, values can overlap the other calls; inactive means above about -39%.
# Test: qHTS Assay for inhibitors of the human cytomegalovirus (HCMV)
# Conditions: HFF cells, HCMV-luciferase reporter, 72 h; at 57.5 µM; active compounds read low
# Method in brief: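 After 16 h attachment at 37C, HFF cells received test compound and HCMV-luciferase (1 PFU/cell); reporter luminescence read 72 h later, data normalized against buffer-only and known inhibitor Salinomycin.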
# On the % scale 0 is the no-effect control and ±100 the full control effect.
row,SMILES,"activity change, negative = inhibition"
1,Cc1ccc(COc2ccc(/C=N/NC(=O)c3ccc(CN4CCOCC4)cc3)cc2)cc1,inactive: 37.7%
2,CC(C)Oc1ccc(C(=O)Nc2ccccc2N2CCCC2)cc1,inconclusive: -59.2%
3,O=C1CC(N2CCC(c3nc4ccccc4o3)CC2)C(=O)N1 (stereo unspecified),inconclusive: 0%
4,CCOCC(=O)N1CCC(Cc2ccccc2)CC1,inconclusive: -54.6%
5,O=C1C2C3C=CC(C4CC34)C2C(=O)N1Cc1ccco1 (stereo unspecified),inconclusive: -43%
6,CCc1ccc(C(=O)N2CCN(c3ccc(NC(=O)c4cccnc4)cc3)CC2)cc1,inconclusive: -57.8%
7,COc1ccc(C(=O)NCCc2ccc(Cl)cc2)cc1S(=O)(=O)N1CCCCC1C (stereo unspecified),inconclusive: -49.7%
8,O=C(CCCn1c(=O)c2cccn2c2cccnc21)NCCc1ccc(Cl)cc1,inconclusive: -50.4%
9,Fc1ccc(NC(=S)NN=C2CCCCCC2)cc1,inconclusive: -50.4%
10,COc1ccc(-c2nn(C)c3sc(C(=O)N4CCN(c5cccc(C)c5C)CC4)cc23)cc1OC,inactive: 9.36%
11,Cc1ccc(N2C(=O)c3cccc4c([N+](=O)[O-])ccc(c34)C2=O)c2cccnc12,inconclusive: -58.1%
12,Cc1ccc(S(=O)(=O)N/N=C(\c2ccccc2)c2cccnc2)cc1,inconclusive: -49.6%
13,COc1cccc(NC(=O)c2cccc(C(=O)Nc3cccc(OC)c3)c2)c1,inactive: -16.9%
14,CC(C)n1cnc2cc(NCc3ccco3)ccc21,inactive: 61.5%
15,O=C(NCCc1csc(-c2cccnc2)n1)c1cccc(C(F)(F)F)c1,inconclusive: -51.8%
16,Cc1[nH]nc(N=CC2=C(O)CC(c3ccco3)CC2=O)c1-c1ccccc1 (stereo unspecified),inactive: 1.93% and inactive: 2.26%
17,CC(O)/C=C/C1OC(=O)CC1Nc1ccc(C=O)cc1 (stereo unspecified),inactive: 0%
18,CCC(C)n1ncn(-c2ccc(N3CCN(c4ccc(O)cc4)CC3)cc2)c1=O (stereo unspecified),inconclusive: -48%
19,COc1ccc(-c2cc(N3CCCC3)n3ncnc3n2)cc1,active: -97.5%

row,SMILES,"activity change, negative = inhibition"
1,N#C/C(=C\c1c(F)cccc1Cl)c1nn(-c2ccccc2)c(-n2cccc2)c1C#N,inconclusive: -44.7%
2,Cc1ccc(S(=O)(=O)C2(C(=O)Nc3ccc4c(c3)OCO4)CC2)cc1,inconclusive: -41.8%
3,COc1ccc(OC)c(C2/C(=C(\O)c3ccc(OC)c(Cl)c3)C(=O)C(=O)N2CCN(C)C)c1 (stereo unspecified),inconclusive: -40.8%
4,CN(CCOc1ccc(Cl)cc1)C(=O)c1ccc(S(=O)(=O)N2CCOCC2)cc1,inconclusive: -47.1%
5,CC(C)=CC(=O)Nc1nc2ccc([N+](=O)[O-])cc2s1,inconclusive: -53.1%
6,O=C(O)Cn1c2c(c3ccccc31)CCCC2,inactive: 52.7%
7,c1ccc(CSC2=NCCS2)cc1,inconclusive: -40.8%
8,COCCn1c(-c2ccc(Cl)cc2)nc2c(c(=O)c3ccccc3n2C)c1=O,inconclusive: -43.7%
9,O=C(CN1C(=O)C2CC=CCC2C1=O)Nc1ccc(S(=O)(=O)Nc2nccs2)cc1 (stereo unspecified),inactive: -17.9%
10,CCc1ccc(S(=O)(=O)c2nnn3c2nc(N2CCOCC2)c2ccccc23)cc1,inactive: 0%
11,O=c1[nH]c(SCc2ccccc2Cl)nc2c1CCC2,inactive: 18%
12,O=C(COc1ccc(Br)cc1Cl)c1ccc[nH]1,inactive: -13%
13,COc1cccc(NC(=O)c2cc([N+](=O)[O-])ccc2NCc2cccnc2)c1,inactive: 0.366%
14,CCCCNC(=O)CSc1nc2ccc(Nc3nc(N4CCOCC4)nc(N4CCOCC4)n3)cc2s1,inconclusive: -51.3%
15,CCCc1c(C)c2cc(C)ccc2[nH]c1=O,inactive: -7.05%
16,Cc1onc(-c2ccccc2Cl)c1C(=O)Nc1ccccc1N1CCOCC1,inconclusive: -47.2%
17,CC(C)CCCN1CCN=C1Nc1ccccc1,inconclusive: -42.1%
18,O=C(Nc1cccc(C(F)(F)F)c1)Oc1ccc(Cl)c2cccnc12,inconclusive: -57.3%
19,CCOC(=O)Cc1c(C)nc(N)[nH]c1=O,inactive: 26.8%

row,SMILES,"activity change, negative = inhibition"
1,Cc1ccc(N(Cc2ccccc2)C(=O)CSC(C)C(=O)Nc2cc(C)on2)cc1 (stereo unspecified),active: -63.9%
2,Cc1cc(C=O)c(C)n1-c1ccc(N2CCCC2)c([N+](=O)[O-])c1,inactive: -9.79%
3,CCC1CN(C(=O)N2CCC(C(=O)NCc3ccc(C)o3)CC2)c2cc(C)ccc2O1 (stereo unspecified),inactive: 25.3% and inactive: 4.79%
4,O=C(C(=O)N1CCN(c2ccccc2)CC1)c1ccc2c(c1)OCO2,active: -64.4%
5,COC(=O)c1scc(C)c1NC(=O)CSc1ccc(Cl)cc1,inconclusive: -59.5%
6,COc1ccc(-c2nnc(-c3cccs3)o2)cc1OC,inactive: 167%
7,CC1(C)O[C@@H](CC(=O)O)[C@]23CO[C@H](C(=O)[C@]4(C)C2CC[C@@]2(C)[C@H](c5ccoc5)OC(=O)C5O[C@]524)[C@@H]13 (stereo partly specified),inconclusive: -40.5%
8,O=C(NC1CCCCCC1)c1cc(S(=O)(=O)N2CCCCC2)ccc1N1CCOCC1,inconclusive: -41.9%
9,CC1(c2ccc(Cl)cc2)NC(=S)N2C1NC(=S)N2c1ccccc1 (stereo unspecified),inconclusive: -42.2%
10,COc1cc(/C=C/c2ccc(O)cc2)cc(OC)c1,inactive: 12.6%
11,COCCCn1c2nc3ccccc3nc2c2c(=O)n(Cc3ccc(Cl)cc3)cnc21,inconclusive: -58%
12,COCCn1c(SCC(=O)Nc2ccc(F)c(Cl)c2)nc2c(oc3ccccc32)c1=O,active: -79.7%
13,Clc1ccc(-c2csc3ncnc(NCCN4CCOCC4)c23)cc1,active: -75%
14,Cc1ccc(NS(=O)(=O)c2ccc(C)c(NC(=O)c3ccc(S(=O)(=O)N4CCCCCC4)cc3)c2)c(C)c1,active: -63.7%
15,COc1ccccc1N(Cc1ccccc1)S(=O)(=O)c1cccc(C(=O)NCC2CCCO2)c1 (stereo unspecified),inconclusive: -52.6%
16,O=C(Nc1ccccc1Oc1ccccc1)c1cc([N+](=O)[O-])ccc1Cl,active: -77.4%
17,COc1ccc(COC(=O)CNC(=O)C2CCCCC2)cc1F,inactive: 29.2%
18,O=C(CSc1nncn1-c1ccccc1)NC1CCCCC1,inconclusive: -48%

# 4 compounds already listed, sorted by length of the SMILES, falling.
row,SMILES,"activity change, negative = inhibition"
7,COc1ccc(C(=O)NCCc2ccc(Cl)cc2)cc1S(=O)(=O)N1CCCCC1C (stereo unspecified),inconclusive: -49.7%
18,CCC(C)n1ncn(-c2ccc(N3CCN(c4ccc(O)cc4)CC3)cc2)c1=O (stereo unspecified),inconclusive: -48%
16,O=C(Nc1ccccc1Oc1ccccc1)c1cc([N+](=O)[O-])ccc1Cl,active: -77.4%
15,O=C(NCCc1csc(-c2cccnc2)n1)c1cccc(C(F)(F)F)c1,inconclusive: -51.8%
